In the supplement of paper PMC11438910:
Some of the results follow. Most of these values are background signal.

Tests used:
Experiment in all cases: fluorescence intensity of antibody binding to polysaccharide-coupled beads; higher = stronger binding
[1] = biological target: pneumococcal polysaccharide Pn16F
[2] = biological target: pneumococcal polysaccharide Pn17A
[3] = biological target: pneumococcal polysaccharide Pn17F
[4] = biological target: pneumococcal polysaccharide Pn18A
[5] = biological target: pneumococcal polysaccharide Pn18B
[6] = biological target: pneumococcal polysaccharide Pn18C
[7] = biological target: pneumococcal polysaccharide Pn18F
[8] = biological target: pneumococcal polysaccharide Pn19A
[9] = biological target: pneumococcal polysaccharide Pn19B
[10] = biological target: pneumococcal polysaccharide Pn19C
[11] = biological target: pneumococcal polysaccharide Pn19F
[12] = biological target: pneumococcal polysaccharide Pn2
[13] = biological target: pneumococcal polysaccharide Pn20A
[14] = biological target: pneumococcal polysaccharide Pn20B
[15] = biological target: pneumococcal polysaccharide Pn21
[16] = biological target: pneumococcal polysaccharide Pn22A
[17] = biological target: pneumococcal polysaccharide Pn22F
[18] = biological target: pneumococcal polysaccharide Pn23A
[19] = biological target: pneumococcal polysaccharide Pn23B
[20] = biological target: pneumococcal polysaccharide Pn23F
[21] = biological target: pneumococcal polysaccharide Pn24A
[22] = biological target: pneumococcal polysaccharide Pn24B
[23] = biological target: pneumococcal polysaccharide Pn24F
[24] = antibody concentration 81.7561 ng/mL
[25] = antibody concentration 437.17 ng/mL
[26] = antibody concentration 2337.65 ng/mL
[27] = antibody concentration 12500 ng/mL
[28] = antibody concentration 0.1 ng/mL
[29] = antibody concentration 0.534724 ng/mL
[30] = antibody concentration 2.8593 ng/mL
[31] = antibody concentration 15.2894 ng/mL

B1: 4-173.3 (protein)
chain 1: QLQLQESGPGLVKPSETLSLTCAVSGGSINNNYWSWIRQPPGKGLEWIGRIFGSGGSTDYNPSLKSRVTISTDTSKTQFSLNLNSVTAADTAVYFCARGSYQVDYWGQGVLVTVSS
chain 2: QAALTQPPSMSGSPGQSVTISCTGTSSDIGGWNRVSWYQQYPGKAPKLMIYEVSKRPSGVSDRFSGSKSGNTASLTISGLQAEDEADYYCSSYVHINNALFGGGTRLTVL
B1 showed a fluorescence intensity [1, 24] of 23.2 MFI, a fluorescence intensity [1, 25] of 23.8 MFI and a fluorescence intensity [1, 26] of 27 MFI. It also gave a fluorescence intensity [1, 27] of 35 MFI, a fluorescence intensity [2, 28] of 20.2 MFI and a fluorescence intensity [2, 29] of 18.5 MFI. For the same binder, the fluorescence intensity [2, 30] was 19 MFI, the fluorescence intensity [2, 31] was 20.5 MFI and the fluorescence intensity [2, 24] was 19.5 MFI. It also gave a fluorescence intensity [2, 25] of 19.8 MFI, a fluorescence intensity [2, 26] of 20 MFI and a fluorescence intensity [2, 27] of 25 MFI. The fluorescence intensity [3, 28] was 25.2 MFI, the fluorescence intensity [3, 29] was 25 MFI and the fluorescence intensity [3, 30] was 26.8 MFI. It also gave a fluorescence intensity [3, 31] of 23.5 MFI, a fluorescence intensity [3, 24] of 23.2 MFI and a fluorescence intensity [3, 25] of 25 MFI. For the same binder, the fluorescence intensity [3, 26] was 25.8 MFI, the fluorescence intensity [3, 27] was 30.5 MFI and the fluorescence intensity [4, 28] was 21.8 MFI. It also gave a fluorescence intensity [4, 29] of 23.5 MFI, a fluorescence intensity [4, 30] of 22 MFI and a fluorescence intensity [4, 31] of 24 MFI. It also gave a fluorescence intensity [4, 24] of 21.5 MFI, a fluorescence intensity [4, 25] of 24.5 MFI and a fluorescence intensity [4, 26] of 24.2 MFI. For the same binder, the fluorescence intensity [4, 27] was 29 MFI, the fluorescence intensity [5, 28] was 30.8 MFI and the fluorescence intensity [5, 29] was 29 MFI. The fluorescence intensity [5, 30] was 30 MFI, the fluorescence intensity [5, 31] was 26.8 MFI and the fluorescence intensity [5, 24] was 28.5 MFI. It also gave a fluorescence intensity [5, 25] of 28 MFI, a fluorescence intensity [5, 26] of 33 MFI and a fluorescence intensity [5, 27] of 39.8 MFI. The fluorescence intensity [6, 28] was 18 MFI, the fluorescence intensity [6, 29] was 17.5 MFI and the fluorescence intensity [6, 30] was 18 MFI. For the same binder, the fluorescence intensity [6, 31] was 17.5 MFI, the fluorescence intensity [6, 24] was 18.5 MFI and the fluorescence intensity [6, 25] was 19 MFI. It also gave a fluorescence intensity [6, 26] of 22.5 MFI, a fluorescence intensity [6, 27] of 34.5 MFI and a fluorescence intensity [7, 28] of 22 MFI. It also gave a fluorescence intensity [7, 29] of 22.8 MFI, a fluorescence intensity [7, 30] of 21.5 MFI and a fluorescence intensity [7, 31] of 20.5 MFI. It also gave a fluorescence intensity [7, 24] of 22 MFI, a fluorescence intensity [7, 25] of 22.2 MFI and a fluorescence intensity [7, 26] of 25 MFI. For the same binder, the fluorescence intensity [7, 27] was 34 MFI, the fluorescence intensity [8, 28] was 16.8 MFI and the fluorescence intensity [8, 29] was 16.8 MFI. The fluorescence intensity [8, 30] was 17.8 MFI, the fluorescence intensity [8, 31] was 16 MFI and the fluorescence intensity [8, 24] was 17.5 MFI. It also gave a fluorescence intensity [8, 25] of 19 MFI, a fluorescence intensity [8, 26] of 19.2 MFI and a fluorescence intensity [8, 27] of 28 MFI. The fluorescence intensity [9, 28] was 31 MFI, the fluorescence intensity [9, 29] was 28.5 MFI and the fluorescence intensity [9, 30] was 28 MFI. For the same binder, the fluorescence intensity [9, 31] was 26 MFI, the fluorescence intensity [9, 24] was 28.2 MFI and the fluorescence intensity [9, 25] was 29 MFI. It also gave a fluorescence intensity [9, 26] of 34 MFI, a fluorescence intensity [9, 27] of 92.5 MFI and a fluorescence intensity [10, 28] of 24 MFI. It also gave a fluorescence intensity [10, 29] of 25 MFI, a fluorescence intensity [10, 30] of 26 MFI and a fluorescence intensity [10, 31] of 22 MFI. The fluorescence intensity [10, 24] was 23 MFI, the fluorescence intensity [10, 25] was 23 MFI and the fluorescence intensity [10, 26] was 28.5 MFI. It also gave a fluorescence intensity [10, 27] of 64.5 MFI, a fluorescence intensity [11, 28] of 24.8 MFI and a fluorescence intensity [11, 29] of 25 MFI. It also gave a fluorescence intensity [11, 30] of 24.8 MFI, a fluorescence intensity [11, 31] of 25 MFI and a fluorescence intensity [11, 24] of 24 MFI. The fluorescence intensity [11, 25] was 27.2 MFI, the fluorescence intensity [11, 26] was 29.5 MFI and the fluorescence intensity [11, 27] was 46 MFI. The fluorescence intensity [12, 28] was 17 MFI, the fluorescence intensity [12, 29] was 18.5 MFI and the fluorescence intensity [12, 30] was 19 MFI. The fluorescence intensity [12, 31] was 18.5 MFI, the fluorescence intensity [12, 24] was 21 MFI and the fluorescence intensity [12, 25] was 18.8 MFI. It also gave a fluorescence intensity [12, 26] of 21 MFI, a fluorescence intensity [12, 27] of 25.2 MFI and a fluorescence intensity [13, 28] of 24.5 MFI. The fluorescence intensity [13, 29] was 22 MFI, the fluorescence intensity [13, 30] was 22 MFI and the fluorescence intensity [13, 31] was 22.5 MFI. The fluorescence intensity [13, 24] was 22 MFI, the fluorescence intensity [13, 25] was 22.5 MFI and the fluorescence intensity [13, 26] was 25.5 MFI. It also gave a fluorescence intensity [13, 27] of 64 MFI, a fluorescence intensity [14, 28] of 22 MFI and a fluorescence intensity [14, 29] of 22.5 MFI. The fluorescence intensity [14, 30] was 22.5 MFI, the fluorescence intensity [14, 31] was 24 MFI and the fluorescence intensity [14, 24] was 23 MFI. The fluorescence intensity [14, 25] was 23 MFI, the fluorescence intensity [14, 26] was 25 MFI and the fluorescence intensity [14, 27] was 31 MFI. For the same binder, the fluorescence intensity [15, 28] was 18 MFI, the fluorescence intensity [15, 29] was 17.5 MFI and the fluorescence intensity [15, 30] was 19.5 MFI. For the same binder, the fluorescence intensity [15, 31] was 18.2 MFI, the fluorescence intensity [15, 24] was 19 MFI and the fluorescence intensity [15, 25] was 19.5 MFI. For the same binder, the fluorescence intensity [15, 26] was 20.2 MFI, the fluorescence intensity [15, 27] was 23.5 MFI and the fluorescence intensity [16, 28] was 23 MFI. The fluorescence intensity [16, 29] was 21 MFI, the fluorescence intensity [16, 30] was 20 MFI and the fluorescence intensity [16, 31] was 20.5 MFI. It also gave a fluorescence intensity [16, 24] of 19 MFI, a fluorescence intensity [16, 25] of 20.5 MFI and a fluorescence intensity [16, 26] of 23.8 MFI. For the same binder, the fluorescence intensity [16, 27] was 39.5 MFI, the fluorescence intensity [17, 28] was 29 MFI and the fluorescence intensity [17, 29] was 30 MFI. For the same binder, the fluorescence intensity [17, 30] was 31.5 MFI, the fluorescence intensity [17, 31] was 31.5 MFI and the fluorescence intensity [17, 24] was 29.5 MFI. The fluorescence intensity [17, 25] was 29 MFI, the fluorescence intensity [17, 26] was 31 MFI and the fluorescence intensity [17, 27] was 39.2 MFI. For the same binder, the fluorescence intensity [18, 28] was 22 MFI, the fluorescence intensity [18, 29] was 23.2 MFI and the fluorescence intensity [18, 30] was 23 MFI. For the same binder, the fluorescence intensity [18, 31] was 23.5 MFI, the fluorescence intensity [18, 24] was 23 MFI and the fluorescence intensity [18, 25] was 27 MFI. It also gave a fluorescence intensity [18, 26] of 33.5 MFI, a fluorescence intensity [18, 27] of 56.8 MFI and a fluorescence intensity [19, 28] of 29 MFI. It also gave a fluorescence intensity [19, 29] of 30 MFI, a fluorescence intensity [19, 30] of 30.2 MFI and a fluorescence intensity [19, 31] of 31.5 MFI. For the same binder, the fluorescence intensity [19, 24] was 29.5 MFI, the fluorescence intensity [19, 25] was 30.5 MFI and the fluorescence intensity [19, 26] was 31.8 MFI. It also gave a fluorescence intensity [19, 27] of 37.5 MFI, a fluorescence intensity [20, 28] of 16 MFI and a fluorescence intensity [20, 29] of 16 MFI. It also gave a fluorescence intensity [20, 30] of 17 MFI, a fluorescence intensity [20, 31] of 18 MFI and a fluorescence intensity [20, 24] of 16.2 MFI. It also gave a fluorescence intensity [20, 25] of 18 MFI, a fluorescence intensity [20, 26] of 19.5 MFI and a fluorescence intensity [20, 27] of 30 MFI. The fluorescence intensity [21, 28] was 16 MFI, the fluorescence intensity [21, 29] was 15.5 MFI and the fluorescence intensity [21, 30] was 15.5 MFI. It also gave a fluorescence intensity [21, 31] of 15 MFI, a fluorescence intensity [21, 24] of 13 MFI and a fluorescence intensity [21, 25] of 16.5 MFI. The fluorescence intensity [21, 26] was 17 MFI, the fluorescence intensity [21, 27] was 22 MFI and the fluorescence intensity [22, 28] was 16.5 MFI. The fluorescence intensity [22, 29] was 16.8 MFI, the fluorescence intensity [22, 30] was 17 MFI and the fluorescence intensity [22, 31] was 16.5 MFI. It also gave a fluorescence intensity [22, 24] of 17 MFI, a fluorescence intensity [22, 25] of 18 MFI and a fluorescence intensity [22, 26] of 19.2 MFI. It also gave a fluorescence intensity [22, 27] of 33.5 MFI, a fluorescence intensity [23, 28] of 16.8 MFI and a fluorescence intensity [23, 29] of 15.2 MFI. For the same binder, the fluorescence intensity [23, 30] was 16.5 MFI, the fluorescence intensity [23, 31] was 16 MFI and the fluorescence intensity [23, 24] was 15 MFI. It also gave a fluorescence intensity [23, 25] of 18.8 MFI, a fluorescence intensity [23, 26] of 22.8 MFI and a fluorescence intensity [23, 27] of 34.5 MFI.
